Test results published in paper PMC7819943, “Rice protein-binding microarrays: a tool to detect cis-acting elements near promoter regions in rice”.
Some of the results follow.

Chains of the proteins cited; added tags and fusions are not shown.
UniProt Q0JBA9, entry or part of it: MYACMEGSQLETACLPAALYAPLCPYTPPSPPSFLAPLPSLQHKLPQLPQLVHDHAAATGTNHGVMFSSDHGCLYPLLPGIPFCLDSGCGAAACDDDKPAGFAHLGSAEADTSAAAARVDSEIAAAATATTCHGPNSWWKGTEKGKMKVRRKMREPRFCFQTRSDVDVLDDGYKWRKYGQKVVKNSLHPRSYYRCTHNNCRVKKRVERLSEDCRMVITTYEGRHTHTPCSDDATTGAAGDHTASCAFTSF

Each sequence was assayed against OsWRKY34 (Oryza sativa, UniProt Q0JBA9 1-250) (assay: protein-binding microarray (RPBM); PBS, 2% BSA, 51.3 ng/ul salmon testes DNA, 50 uM zinc acetate, 200 nM TF, 25 C, 1 h; high values mean tight binding). Details: protein: recombinant; tags: N-terminal polyhistidine and DsRed monomer fusion (pET32a); label: CyDye5-dUTP incorporated in the synthesized complementary strand; 3' TTTTT single-stranded linker to array surface; dsDNA, one strand shown.
Procedure, shortened: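 Binding signal is defined as the fluorescence intensity of each feature in arbitrary units, read on an Axon 4000B scanner. Transcription factors with N-terminal polyhistidine and DsRed fusions came from E. coli BL21-CodonPlus and were purified on Ni–NTA. They were incubated at 200 nM for 1 h at 25 °C on a custom Agilent array that had been made double-stranded with Cy5-dUTP, with 50 µM zinc acetate present, and the array was washed.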

Sequence | binding signal
TTAATTAATCATTCAGTAATGCGTGCTCTGTTTTACGTGCCGGAGTCACCTAGTGCAG | 8400 fluorescence intensity (a.u.)
GATGTTTTGACTTTGATTAAAGTCAAACTAAGTTTGGCTACGGAGTCACCTAGTGCAG | 11200 fluorescence intensity (a.u.)
CGCGCGTGCCCGTTTCTCTCGATCTCGCCACGGCTAGCTACGGAGTCACCTAGTGCAG | 11200 fluorescence intensity (a.u.)
GTTAGTATGATTGTTAGTCAAAAGTTATCAAGTTTGATTTCGGAGTCACCTAGTGCAG | 8360 fluorescence intensity (a.u.)
CACTAGGTGAGCAATTTTGTTACCACGTCCATGTGCTGATCGGAGTCACCTAGTGCAG | 8810 fluorescence intensity (a.u.)
TAGGCTGTATTCTTATCCACTCATGCAGTGCTCTGATAGGCGGAGTCACCTAGTGCAG | 11000 fluorescence intensity (a.u.)
TCCACCTCTCACTGTTGTTCACCGTCTCCTGGCTCCTGCCCGGAGTCACCTAGTGCAG | 8570 fluorescence intensity (a.u.)
CATATGTTGTTACCTTTTGGTTGTTTGCTTTGCATTATAACGGAGTCACCTAGTGCAG | 10200 fluorescence intensity (a.u.)
GCCGCCATCGTTCCTGTTCGCCGCCCGTTGTCCTTCCAATCGGAGTCACCTAGTGCAG | 13000 fluorescence intensity (a.u.)
GCCACGGATAAATTTCCACCGCCTTCGCCTTCGCGAGATCCGGAGTCACCTAGTGCAG | 8150 fluorescence intensity (a.u.)
GATGATCCTCACACATCAAGACTAGTATTTTGGGTTGTATCGGAGTCACCTAGTGCAG | 8550 fluorescence intensity (a.u.)
TCATATACCTCGCGATCCCTCTCACCGCCGATCGATCGAGCGGAGTCACCTAGTGCAG | 12100 fluorescence intensity (a.u.)
CCTATTTTCTAACGGTGCCTACGGATTTTATCCAACTTTACGGAGTCACCTAGTGCAG | 9510 fluorescence intensity (a.u.)
TTAATTGCTAAGCTGTTCCGTCCATGGTTCACACTTCACACGGAGTCACCTAGTGCAG | 8060 fluorescence intensity (a.u.)
TATATATATATATATATATATATATATATATATATGAAAGCGGAGTCACCTAGTGCAG | 8250 fluorescence intensity (a.u.)
TATTTGTGATCCCGTGCATGCACTTTGGCACTCGTCCATGCGGAGTCACCTAGTGCAG | 9750 fluorescence intensity (a.u.)
TCTCCATCGTGCCATCCACCGCGCGCTTCCGTCCACTCGCCGGAGTCACCTAGTGCAG | 13000 fluorescence intensity (a.u.)
GCCTGTCGTTGGTGACTGTATTAGCTTAGTTTCCAGTGGTCGGAGTCACCTAGTGCAG | 9060 fluorescence intensity (a.u.)
TCCGTTTCCTGCCCAACCGCGTCTTGAAAATTGTTGCTGCCGGAGTCACCTAGTGCAG | 11600 fluorescence intensity (a.u.)
AAAACCGACGGGCTCATTCTCCAGCTTAACTCTCACAGGTCGGAGTCACCTAGTGCAG | 8660 fluorescence intensity (a.u.)
CGATGATTTTGTTGCAGATATATTTTTTCCCAGCTTCTTTCGGAGTCACCTAGTGCAG | 12100 fluorescence intensity (a.u.)

Sequence | binding signal
CCAAAACACTGCCGCACCACGCCTCGTTCCCGCGGACTCCCGGAGTCACCTAGTGCAG | 9790 fluorescence intensity (a.u.)
ACGTCTCTATTACTACCTCCATTTCATGATGTAACAATTTCGGAGTCACCTAGTGCAG | 13600 fluorescence intensity (a.u.)
ATCGCGAAGTTCGCGACCCGATTCCTCTCCGCCCGCCATGCGGAGTCACCTAGTGCAG | 8380 fluorescence intensity (a.u.)
TTTTCGTTCATATTTAGTGCTTCATACGTATGTCTAAATACGGAGTCACCTAGTGCAG | 10500 fluorescence intensity (a.u.)
GGTTGGTGGTTGGCAAAAGAGGACGTGTGAAGGAAAAGGTCGGAGTCACCTAGTGCAG | 10900 fluorescence intensity (a.u.)
GAATGATTCTTATGATCATATCCAACTTATTACGTCCTGTCGGAGTCACCTAGTGCAG | 9860 fluorescence intensity (a.u.)
TATCTTCTTGTACCTTTTGTCCTCTTATTGATTGTAAAAACGGAGTCACCTAGTGCAG | 10300 fluorescence intensity (a.u.)
AGTTGGCACACCTGCTTTGGTCAACGTACGTTTATCAATCCGGAGTCACCTAGTGCAG | 10100 fluorescence intensity (a.u.)
GGCTTCGCATCGCTCCTCCTCGTCTGACTTCGCGTCACTCCGGAGTCACCTAGTGCAG | 8080 fluorescence intensity (a.u.)
AAGCAGCAAAAGTCACACATACACTCTCTCTGCTACTACTCGGAGTCACCTAGTGCAG | 8160 fluorescence intensity (a.u.)
TTTTTTTTCATCTTGTCTGTCACCTGCCGCCCTCAGTCTACGGAGTCACCTAGTGCAG | 9570 fluorescence intensity (a.u.)
TCGCTCTAACTTCTACTCGATCGTTTTTCACGCGCTCCTTCGGAGTCACCTAGTGCAG | 11700 fluorescence intensity (a.u.)
TACAGGCTTTATTACAGGTCTTCTTATCGCCGGTCGTACGCGGAGTCACCTAGTGCAG | 8640 fluorescence intensity (a.u.)
TCCACCGATTCGGCTTCCACCGCTGCCGATTCCCAATTCCCGGAGTCACCTAGTGCAG | 12100 fluorescence intensity (a.u.)
TCACGTTGACCCGGTCGCCATGCACCCGCAAGCTCATCCACGGAGTCACCTAGTGCAG | 9030 fluorescence intensity (a.u.)
TCTATACCTCTTTCTTTCTCGGTCTCTCCAGTACCCTACTCGGAGTCACCTAGTGCAG | 11200 fluorescence intensity (a.u.)
TTCTCACTGAATTAGCTAGGGCTGCCTCGTCTCTTATTCTCGGAGTCACCTAGTGCAG | 8410 fluorescence intensity (a.u.)
TCTATCAGACTCTTCTTTATCCAGTACCTTTTAGGGTTTGCGGAGTCACCTAGTGCAG | 9010 fluorescence intensity (a.u.)
CCGCCGCCGCCCGTCCTGCCTGCTTCGCAGCCGCGCTAGCCGGAGTCACCTAGTGCAG | 8650 fluorescence intensity (a.u.)
TCCACTCGCTCGTCTCGTCTCTCCGCTCTCTTCCGGACTTCGGAGTCACCTAGTGCAG | 10200 fluorescence intensity (a.u.)
CTTGTTATGTTCCGTTTCTTCCAGCTTTGGTGCTCTCTCACGGAGTCACCTAGTGCAG | 9010 fluorescence intensity (a.u.)

Some of the entries above, set out differently:
Sequence,binding signal
TCTATACCTCTTTCTTTCTCGGTCTCTCCAGTACCCTACTCGGAGTCACCTAGTGCAG,11200 fluorescence intensity (a.u.)
TTCTCACTGAATTAGCTAGGGCTGCCTCGTCTCTTATTCTCGGAGTCACCTAGTGCAG,8410 fluorescence intensity (a.u.)
